Most of the targets with a hit are listed elsewhere, so they are rarer here than in the full data. The data scatter; read single values as rough. This is a selection; strong and weak results do not stand in their true shares.
Compound: COC(=O)/C=C/c1ccccc1 [methyl cinnamate]
Experiment: log2 ratio of iodoacetamide-alkyne labeling of the cysteine site, DMSO over compound (competition); higher = stronger covalent engagement of the cysteine by the compound, active = 1 or more
Settings: 500 µM; treatment time 1 h; system: HEK293T cell lysate
Summary of the method: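 Electrophile (500 µM) or vehicle was added to HEK293T lysate (2 mg/mL) for 1 h at ambient temperature before iodoacetamide alkyne labelling (1 h) and click coupling to sCIP-TMT reagents. After pooling, overnight trypsin digestion at 37 °C, streptavidin enrichment and acid elution, peptides were measured by Orbitrap Eclipse LC-MS/MS with FAIMS and quantified in FragPipe. Each cysteine's log2 competition ratio compares mean control-channel with mean compound-channel reporter intensity, control over compound. Data came from duplicate channels across three replicates, excluding cysteines quantified in only one replicate.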

Protein sequences, listed by entry. Tags and fused reporters are not part of them. Lines headed by an entry give the natural chain unless they say otherwise; changes in a name come on top.
UniProt Q9UBT2: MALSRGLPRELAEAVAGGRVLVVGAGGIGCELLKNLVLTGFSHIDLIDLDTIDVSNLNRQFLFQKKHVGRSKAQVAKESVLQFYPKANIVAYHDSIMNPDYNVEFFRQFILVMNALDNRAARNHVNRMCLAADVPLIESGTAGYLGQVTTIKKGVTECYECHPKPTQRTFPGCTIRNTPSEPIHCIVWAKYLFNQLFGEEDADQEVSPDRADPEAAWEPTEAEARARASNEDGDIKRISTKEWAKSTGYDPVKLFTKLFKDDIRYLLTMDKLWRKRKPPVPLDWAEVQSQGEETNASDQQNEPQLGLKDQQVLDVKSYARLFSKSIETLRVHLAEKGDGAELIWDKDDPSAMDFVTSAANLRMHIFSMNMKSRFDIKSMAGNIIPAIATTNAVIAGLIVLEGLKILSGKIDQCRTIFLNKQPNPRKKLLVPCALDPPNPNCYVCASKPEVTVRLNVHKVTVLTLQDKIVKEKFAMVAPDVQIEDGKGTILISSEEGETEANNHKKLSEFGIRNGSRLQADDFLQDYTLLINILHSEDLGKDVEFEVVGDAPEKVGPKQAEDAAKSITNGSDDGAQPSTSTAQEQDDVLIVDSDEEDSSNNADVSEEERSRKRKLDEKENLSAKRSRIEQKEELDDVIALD
UniProt Q9NUQ3: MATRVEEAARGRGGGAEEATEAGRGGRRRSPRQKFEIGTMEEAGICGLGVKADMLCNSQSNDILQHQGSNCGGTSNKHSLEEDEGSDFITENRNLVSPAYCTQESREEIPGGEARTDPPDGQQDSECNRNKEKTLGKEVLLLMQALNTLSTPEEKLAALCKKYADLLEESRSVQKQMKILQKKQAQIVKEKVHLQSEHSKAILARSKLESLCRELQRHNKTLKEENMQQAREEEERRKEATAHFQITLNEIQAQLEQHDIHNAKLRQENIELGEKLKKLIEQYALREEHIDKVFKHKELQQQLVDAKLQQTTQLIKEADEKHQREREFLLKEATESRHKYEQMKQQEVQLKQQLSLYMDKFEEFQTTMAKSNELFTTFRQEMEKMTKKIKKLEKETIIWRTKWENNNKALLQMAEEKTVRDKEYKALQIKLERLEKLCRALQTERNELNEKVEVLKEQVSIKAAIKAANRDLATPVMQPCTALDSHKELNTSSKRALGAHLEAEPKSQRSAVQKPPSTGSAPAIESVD
UniProt Q9UBB6: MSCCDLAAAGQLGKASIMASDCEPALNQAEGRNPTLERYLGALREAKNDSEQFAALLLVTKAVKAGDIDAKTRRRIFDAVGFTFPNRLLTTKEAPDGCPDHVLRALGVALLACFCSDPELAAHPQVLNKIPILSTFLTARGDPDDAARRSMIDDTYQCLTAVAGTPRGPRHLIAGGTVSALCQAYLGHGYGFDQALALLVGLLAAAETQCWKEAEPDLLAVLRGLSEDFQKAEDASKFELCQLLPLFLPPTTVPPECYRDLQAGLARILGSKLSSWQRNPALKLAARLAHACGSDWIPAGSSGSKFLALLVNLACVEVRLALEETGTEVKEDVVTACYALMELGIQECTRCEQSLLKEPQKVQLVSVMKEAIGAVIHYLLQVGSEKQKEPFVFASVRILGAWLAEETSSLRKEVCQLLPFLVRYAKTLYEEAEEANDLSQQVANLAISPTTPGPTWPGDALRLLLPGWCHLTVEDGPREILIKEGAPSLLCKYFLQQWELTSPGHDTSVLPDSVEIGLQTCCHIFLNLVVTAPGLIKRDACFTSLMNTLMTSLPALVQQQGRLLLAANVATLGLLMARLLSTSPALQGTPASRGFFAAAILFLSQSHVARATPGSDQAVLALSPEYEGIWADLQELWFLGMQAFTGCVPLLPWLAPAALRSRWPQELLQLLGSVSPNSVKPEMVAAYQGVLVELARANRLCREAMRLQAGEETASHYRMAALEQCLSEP
UniProt Q9NXC5: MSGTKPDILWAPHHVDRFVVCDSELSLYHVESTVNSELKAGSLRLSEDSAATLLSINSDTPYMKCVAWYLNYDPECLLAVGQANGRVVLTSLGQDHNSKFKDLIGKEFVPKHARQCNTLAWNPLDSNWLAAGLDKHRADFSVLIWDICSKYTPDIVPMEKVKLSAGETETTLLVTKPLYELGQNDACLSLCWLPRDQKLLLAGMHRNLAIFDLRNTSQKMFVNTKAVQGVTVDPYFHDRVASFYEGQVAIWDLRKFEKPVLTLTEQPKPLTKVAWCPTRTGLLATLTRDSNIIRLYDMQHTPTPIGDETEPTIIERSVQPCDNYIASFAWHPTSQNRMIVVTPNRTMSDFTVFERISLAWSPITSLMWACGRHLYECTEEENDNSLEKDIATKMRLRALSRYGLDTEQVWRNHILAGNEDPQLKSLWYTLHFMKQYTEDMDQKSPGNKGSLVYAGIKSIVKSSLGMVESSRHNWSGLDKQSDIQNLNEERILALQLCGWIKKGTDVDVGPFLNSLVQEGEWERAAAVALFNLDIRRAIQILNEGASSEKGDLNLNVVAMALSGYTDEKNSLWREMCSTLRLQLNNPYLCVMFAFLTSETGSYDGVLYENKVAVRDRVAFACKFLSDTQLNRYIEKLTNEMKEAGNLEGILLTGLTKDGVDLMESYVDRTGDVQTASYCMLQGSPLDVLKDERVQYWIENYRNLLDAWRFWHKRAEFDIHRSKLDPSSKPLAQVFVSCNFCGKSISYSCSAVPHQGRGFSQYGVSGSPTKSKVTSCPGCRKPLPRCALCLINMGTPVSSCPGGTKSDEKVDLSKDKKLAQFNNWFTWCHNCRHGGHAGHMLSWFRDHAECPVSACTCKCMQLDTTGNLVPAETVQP
UniProt Q9UBN7: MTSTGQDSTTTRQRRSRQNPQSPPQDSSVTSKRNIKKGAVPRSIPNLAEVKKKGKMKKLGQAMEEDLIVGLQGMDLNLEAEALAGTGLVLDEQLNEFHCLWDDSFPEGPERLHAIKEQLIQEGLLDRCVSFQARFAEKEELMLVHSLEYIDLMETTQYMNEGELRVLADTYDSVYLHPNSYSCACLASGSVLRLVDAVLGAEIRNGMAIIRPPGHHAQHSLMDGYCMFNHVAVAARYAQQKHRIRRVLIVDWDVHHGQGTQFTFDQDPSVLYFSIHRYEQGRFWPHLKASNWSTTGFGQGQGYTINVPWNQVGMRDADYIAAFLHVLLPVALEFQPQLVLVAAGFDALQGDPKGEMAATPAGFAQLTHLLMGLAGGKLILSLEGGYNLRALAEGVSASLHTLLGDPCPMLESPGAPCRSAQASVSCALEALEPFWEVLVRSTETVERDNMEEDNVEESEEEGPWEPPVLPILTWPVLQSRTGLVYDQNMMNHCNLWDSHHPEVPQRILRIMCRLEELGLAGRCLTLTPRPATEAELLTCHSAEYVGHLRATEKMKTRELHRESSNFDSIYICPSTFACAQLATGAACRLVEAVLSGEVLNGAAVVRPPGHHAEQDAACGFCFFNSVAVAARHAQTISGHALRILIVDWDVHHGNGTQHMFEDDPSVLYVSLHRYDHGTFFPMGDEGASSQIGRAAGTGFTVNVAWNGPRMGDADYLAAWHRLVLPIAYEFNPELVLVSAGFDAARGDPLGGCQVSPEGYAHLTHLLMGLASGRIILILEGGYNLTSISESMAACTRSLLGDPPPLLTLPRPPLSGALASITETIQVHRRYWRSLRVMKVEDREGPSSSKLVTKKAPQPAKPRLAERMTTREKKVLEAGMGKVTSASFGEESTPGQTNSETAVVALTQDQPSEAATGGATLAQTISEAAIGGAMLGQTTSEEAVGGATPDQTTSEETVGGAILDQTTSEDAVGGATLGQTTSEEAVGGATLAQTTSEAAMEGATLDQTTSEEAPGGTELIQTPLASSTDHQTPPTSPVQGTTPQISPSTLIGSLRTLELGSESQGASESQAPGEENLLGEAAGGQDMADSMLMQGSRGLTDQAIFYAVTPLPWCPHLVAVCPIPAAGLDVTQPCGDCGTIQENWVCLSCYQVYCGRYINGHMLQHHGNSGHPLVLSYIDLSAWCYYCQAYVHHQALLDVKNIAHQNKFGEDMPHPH
UniProt Q9NVP1: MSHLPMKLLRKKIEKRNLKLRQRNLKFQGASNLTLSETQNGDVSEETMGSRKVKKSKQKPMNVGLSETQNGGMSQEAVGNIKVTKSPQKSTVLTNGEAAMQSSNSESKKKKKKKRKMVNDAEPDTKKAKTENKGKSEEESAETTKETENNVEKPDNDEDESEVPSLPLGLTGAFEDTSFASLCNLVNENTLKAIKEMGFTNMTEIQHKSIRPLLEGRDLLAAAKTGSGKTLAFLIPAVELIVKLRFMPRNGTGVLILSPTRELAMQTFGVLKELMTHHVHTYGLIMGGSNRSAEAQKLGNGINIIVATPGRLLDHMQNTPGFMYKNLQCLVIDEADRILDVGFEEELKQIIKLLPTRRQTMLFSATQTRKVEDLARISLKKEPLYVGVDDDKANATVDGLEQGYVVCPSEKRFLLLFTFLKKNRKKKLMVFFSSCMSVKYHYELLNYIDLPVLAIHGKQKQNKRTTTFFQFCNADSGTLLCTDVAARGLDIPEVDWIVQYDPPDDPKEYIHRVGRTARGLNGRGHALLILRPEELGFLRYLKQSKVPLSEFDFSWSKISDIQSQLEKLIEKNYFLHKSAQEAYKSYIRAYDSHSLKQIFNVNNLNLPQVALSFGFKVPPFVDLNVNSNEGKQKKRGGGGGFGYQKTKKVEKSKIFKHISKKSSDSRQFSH
UniProt Q9NZB2: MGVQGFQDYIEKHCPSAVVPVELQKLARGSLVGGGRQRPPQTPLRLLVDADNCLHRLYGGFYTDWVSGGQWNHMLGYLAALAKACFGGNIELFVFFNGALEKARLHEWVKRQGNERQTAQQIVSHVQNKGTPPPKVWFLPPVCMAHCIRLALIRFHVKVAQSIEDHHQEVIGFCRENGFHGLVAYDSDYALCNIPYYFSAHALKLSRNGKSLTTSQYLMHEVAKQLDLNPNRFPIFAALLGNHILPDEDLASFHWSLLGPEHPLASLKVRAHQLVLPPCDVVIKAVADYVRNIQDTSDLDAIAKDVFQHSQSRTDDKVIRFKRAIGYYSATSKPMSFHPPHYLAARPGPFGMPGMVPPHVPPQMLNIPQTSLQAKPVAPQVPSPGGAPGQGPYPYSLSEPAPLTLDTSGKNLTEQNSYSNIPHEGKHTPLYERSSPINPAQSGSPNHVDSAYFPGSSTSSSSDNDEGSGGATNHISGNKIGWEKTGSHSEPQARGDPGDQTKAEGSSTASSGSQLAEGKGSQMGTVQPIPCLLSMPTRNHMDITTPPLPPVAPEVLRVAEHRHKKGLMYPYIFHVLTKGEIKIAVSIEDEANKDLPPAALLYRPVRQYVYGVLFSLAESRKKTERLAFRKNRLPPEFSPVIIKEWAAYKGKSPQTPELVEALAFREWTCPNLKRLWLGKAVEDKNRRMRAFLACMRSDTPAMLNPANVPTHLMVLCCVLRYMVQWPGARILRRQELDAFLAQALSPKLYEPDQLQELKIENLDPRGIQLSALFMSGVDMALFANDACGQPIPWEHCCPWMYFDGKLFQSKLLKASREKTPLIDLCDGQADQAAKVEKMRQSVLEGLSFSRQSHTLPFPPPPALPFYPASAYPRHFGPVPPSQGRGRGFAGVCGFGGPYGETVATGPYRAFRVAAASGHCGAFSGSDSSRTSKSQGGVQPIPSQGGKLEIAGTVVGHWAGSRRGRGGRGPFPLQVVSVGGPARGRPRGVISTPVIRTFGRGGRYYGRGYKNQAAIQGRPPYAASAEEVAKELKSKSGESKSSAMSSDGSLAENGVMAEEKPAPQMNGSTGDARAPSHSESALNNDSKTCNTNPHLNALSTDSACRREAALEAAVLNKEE
UniProt Q9P1F3: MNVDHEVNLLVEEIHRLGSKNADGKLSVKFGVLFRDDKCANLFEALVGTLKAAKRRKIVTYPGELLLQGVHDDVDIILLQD
UniProt Q9NUQ8: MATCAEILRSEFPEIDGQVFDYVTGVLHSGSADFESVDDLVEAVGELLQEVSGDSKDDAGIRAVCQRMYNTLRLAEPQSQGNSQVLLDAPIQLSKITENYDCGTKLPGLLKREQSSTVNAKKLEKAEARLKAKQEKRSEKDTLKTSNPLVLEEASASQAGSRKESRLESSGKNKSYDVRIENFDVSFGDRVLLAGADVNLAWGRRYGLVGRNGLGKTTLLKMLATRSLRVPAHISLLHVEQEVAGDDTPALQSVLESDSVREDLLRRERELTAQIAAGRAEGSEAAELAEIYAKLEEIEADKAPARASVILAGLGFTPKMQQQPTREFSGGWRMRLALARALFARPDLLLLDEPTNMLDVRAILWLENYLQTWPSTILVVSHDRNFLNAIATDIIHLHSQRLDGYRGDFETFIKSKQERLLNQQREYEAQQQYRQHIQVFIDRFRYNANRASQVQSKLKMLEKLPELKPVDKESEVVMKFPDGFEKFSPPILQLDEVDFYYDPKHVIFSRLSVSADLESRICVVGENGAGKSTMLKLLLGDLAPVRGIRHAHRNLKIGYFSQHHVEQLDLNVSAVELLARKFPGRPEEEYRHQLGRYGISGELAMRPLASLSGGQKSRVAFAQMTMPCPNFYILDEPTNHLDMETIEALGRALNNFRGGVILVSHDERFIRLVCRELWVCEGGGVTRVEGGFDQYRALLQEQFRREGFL

log2 ratio of iodoacetamide-alkyne labeling, inactive:
UBA2 C185 (UniProt Q9UBT2) 0.0878
BSDC1 C49 (UniProt Q9NW68) 0.0327
TJP2 C601 (UniProt Q9UDY2) 0.0936
MKRN1 C179 (UniProt Q9UHC7) 0.0097
DPP3 C176 (UniProt Q9NY33) 0.526
MED17 C110 (UniProt Q9NVC6) 0.0885
NHP2 C18 (UniProt Q9NX24) 0.319
ALKBH4 C159 (UniProt Q9NXW9) 0.101
EIF3K C85 (UniProt Q9UBQ5) 0.0884
UniProt Q9NUQ3_C127 0.478
BSDC1 C99 (UniProt Q9NW68) 0.359
NCDN C98 (UniProt Q9UBB6) 0.301
LIMD1 C148 (UniProt Q9UGP4) 0.189
TES C196 (UniProt Q9UGI8) 0.188
UniProt Q9NUQ3_C480 0.277
CHMP5 C20 (UniProt Q9NZZ3) 0.393
ADPRHL2 C132 (UniProt Q9NX46) 0.172
PIH1D1 C117 (UniProt Q9NWS0) -0.036
LARS C546 (UniProt Q9P2J5) -0.0676
TES C416 (UniProt Q9UGI8) -0.0167
MIOS C321 (UniProt Q9NXC5) -0.243
NDRG3 C359 (UniProt Q9UGV2) 0.402
HDAC6 C426 (UniProt Q9UBN7) -0.224
DDX18 C329 (UniProt Q9NVP1) 0.273
CGGBP1 C167 (UniProt Q9UFW8) 0.471
UCKL1 C317 (UniProt Q9NWZ5) -0.156
UniProt Q9P289_C392 0.252
FAM120A C892 (UniProt Q9NZB2) 0.662
UniProt Q9P1F3_C39 0.232
MRPL22 C70 (UniProt Q9NWU5) -0.126
ABCF3 C628 (UniProt Q9NUQ8) -0.233
CGGBP1 C111 (UniProt Q9UFW8) 0.389
UniProt Q9NVH0_C284 0.296
BCLAF1 C242 (UniProt Q9NYF8) -0.053
CPSF2 C577 (UniProt Q9P2I0) 0.00113
UniProt Q9NUQ3_C101 0.351
FAM120A C919 (UniProt Q9NZB2) 0.112

Two neighbouring entries from above, for reference:
log2 ratio of iodoacetamide-alkyne labeling, inactive:
UniProt Q9P289_C392 0.252
FAM120A C892 (UniProt Q9NZB2) 0.662
